Values joined by “and” are separate entries in the source; they are usually repeats but may differ in a detail not shown here. Identical values can stand only once. Out of some 410,000 compounds screened, about 18,000 (4.4%) were called active. The inconclusive results got no clear call from the source; some entries with a clear call stand among them for comparison. No stated cut-off is given here; in the data, active means activity change below about -60%; inconclusive means no clear call, values can overlap the other calls; inactive means above about -39%.
Assay: qHTS Assay for inhibitors of the human cytomegalovirus (HCMV)
Details: HFF cells, HCMV-luciferase reporter, 72 h; at 57.5 µM; stronger effect = lower value
Procedure, shortened: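 Two-dose cell screen: HFF monolayers treated with compounds and infected with luciferase-expressing HCMV at 1 PFU/cell, 72 h at 37C, then lysed for luciferase measurement.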
On the % scale 0 is the no-effect control and ±100 the full control effect.

Row | SMILES | activity change, negative = inhibition
1 | Cc1ccc(-c2csc3ncnc(SCC(=O)Nc4nnc(C)s4)c23)cc1 | inactive: 12.1%
2 | CCN(CC)S(=O)(=O)c1cc(-c2nnc(-c3ccc(Br)cc3)o2)ccc1Cl | inconclusive: -42.9%
3 | Cn1cccc1/C=N/n1c(-c2ccc(C(C)(C)C)cc2)n[nH]c1=S | inconclusive: -42.6%
4 | Cc1cccc(C)c1Nc1nnc(SCC(=O)Nc2cc(S(=O)(=O)N3CCCCC3)ccc2Cl)s1 | inconclusive: -52.4%
5 | Cc1ccc(C(C(=O)NC(C)(C)C)N(C(=O)CCC(=O)Nc2ccccn2)c2ccccc2F)cc1 (stereo not drawn) | inconclusive: -40.9%
6 | Cc1nnsc1S(=O)c1ccc(Br)cc1 (stereo not drawn) | active: -63.1%
7 | Cc1cc(/C=C2\Cc3ccccc3C2=O)c(C)n1-c1ccccc1 | inconclusive: -56.5%
8 | CC(C)c1cc(C(=O)N2CCCC(CCC(=O)N3CCN(c4ccccn4)CC3)C2)no1 (stereo not drawn) | active: -61.7%
9 | CCc1cccc(Nc2c([N+](=O)[O-])cc(C(=O)N3CC(=O)Nc4ccccc43)cc2[N+](=O)[O-])c1 | inactive: 0.458%
10 | O=C(N/N=C/c1ccc(-c2cccc([N+](=O)[O-])c2)o1)[C@H]1C[C@@H]1c1ccccc1 | inconclusive: -45.8%
11 | CC(C)(CC(=O)OCC(=O)Nc1ccccc1F)CC1=NS(=O)(=O)c2ccccc2N1 | inconclusive: -56.8% and inconclusive: -55%
12 | CCCCCCCCNCCS(=O)(=O)NC1CCCCC1 | inconclusive: -48.5%
13 | O=C(Nc1c(C(=O)O)[nH]c2ccc(F)cc12)c1cccc(C(F)(F)F)c1 | inactive: -28.9%
14 | COc1cc(C(=O)N2CCCCC2c2cc(C(=O)NCc3cccnc3)no2)cc(OC)c1C (stereo not drawn) | inactive: 7%
15 | O=C(O)/C=C/C(=O)NC1CC1 | inconclusive: -45.5%
16 | COc1ccc(/C=N/Nc2nonc2N)cc1 | inconclusive: -58.5%
17 | CC(=O)Nc1ccc(NC(=O)c2c(C)nn(Cc3ccccc3Cl)c2C)cc1 | inactive: -13.2%
18 | Cc1ccc(NC(=O)C2(C)CCN2Cc2csc3ccccc23)cc1 (stereo not drawn) | inconclusive: -46.7%
19 | CCN1CCN(S(=O)(=O)c2cccc3nsnc23)CC1 | inconclusive: -54.6%
20 | CCN(CC)c1ccc(NC(=O)c2ccccn2)cc1S(=O)(=O)Nc1ccccc1OC | inactive: -21.3%
21 | O=C(NC1CCCC1)C1c2ccccc2OCC(=O)N1CCCN1CCOCC1 (stereo not drawn) | inactive: 4.77%
22 | Cc1ccc(-n2c(O)c(C=NCc3ccccn3)c3ccccc3c2=O)cc1C | inconclusive: -46.7%
23 | CCC(Sc1ncccc1C(=O)Oc1ccccc1Cl)C(=O)Nc1ccccc1OC (stereo not drawn) | inactive: -20.9%
24 | O=C(Nc1cccnc1)c1ccc([N+](=O)[O-])s1 | active: -84.4%
25 | COc1ccc(-n2c(=O)[nH]c3cc(C(=O)NCCc4ccc(Cl)cc4)ccc3c2=O)cc1OC | inconclusive: -43.6% and inconclusive: -54.1%
26 | O=[N+]([O-])c1cc([N+](=O)[O-])c(Oc2c(F)ccc(F)c2F)cc1NN1CCCCC1 | inconclusive: -53.3%
27 | CCOc1ccc(Br)cc1S(=O)(=O)Nc1cccc(S(=O)(=O)N(CC)CC)c1 | inactive: 14.1%

Row | SMILES | activity change, negative = inhibition
28 | Cc1ccc(C)c(S(=O)(=O)NCc2ccc(C(=O)N3CCCCCC3)cc2)c1 | inconclusive: -53.1%
29 | C=C1C(=O)[C@]23C[C@H]1CC[C@H]2[C@]1(C)[C@@H](OC(C)=O)CC[C@@](C)(C(=O)O)[C@H]1C[C@@H]3O | active: -65.5%
30 | COc1ccc(NC2=C3CC(C)CC=C3N(c3ccc(OC)cc3)C2=O)cc1 (stereo not drawn) | inconclusive: -50.4%
31 | CCCc1ccc(Oc2cn[nH]c2-c2ccc(O)c(C)c2O)cc1 | active: -61.3%
32 | CSc1ccccc1COC(=O)Nc1ccccc1C | inconclusive: -47.9%
33 | Cc1nc2ccn(Cc3ccco3)c(=O)c2cc1C(=O)Nc1ccc(F)cc1 | inconclusive: -40.1%
34 | CNc1cc(-c2cccc(C(=O)N3CCOCC3)c2)ncn1 | inactive: 58%
35 | Cc1cc(S(=O)(=O)N2CCN(Cc3ccc4c(c3)OCO4)CC2)cc(C)c1N1CCCC1=O | active: -95.7%
36 | COc1ccc(CN([C@H](C)CO)S(=O)(=O)N(Cc2ccccc2)[C@H](CO)C(C)C)cc1 | inactive: -9.66%
37 | c1nc(N2CCCCCC2)c2[nH]cnc2n1 | inconclusive: -42.3%
38 | Cc1oc2ccc(NS(=O)(=O)c3cccc4cccnc34)cc2c1C(=O)OC(C)C | inconclusive: -51.4%
39 | COC(=O)CCNc1n[nH]c(=O)[nH]c1=O | inconclusive: -41.3%
40 | CSCCC(NC(=O)c1ccccc1Cl)C(=O)NCC(c1ccc(F)cc1)N1CCOCC1 (stereo not drawn) | inconclusive: -55.3%
41 | O=C(CCc1nc(-c2ccccc2)c(-c2ccccc2)o1)OCc1ccc(Cl)cc1 | inconclusive: -42.2%
42 | Cc1cc(C)c2nc(C(F)(F)F)c(C#N)c(N)c2c1 | inconclusive: -59.4%
43 | O=C(Nc1cccnc1)C1(F)C(F)(F)C(F)(F)C(F)(F)C(F)(F)C1(F)F | inactive: 39.8%
44 | CCC(C)n1c(=N)c(C(=O)NC2CCCCC2)cc2c(=O)n3ccccc3nc21 (stereo not drawn) | inactive: -27%
45 | Cc1coc2c(C)c3oc(=O)c(CCC(=O)N4CCC(C(=O)NCCCC(=O)O)(c5ccccc5)CC4)c(C)c3cc12 | inactive: -23.6%
46 | CCOc1ccc(NC(=O)c2ccc3c(=O)n(-c4ccc(OC)cc4OC)c(=S)[nH]c3c2)cc1 | active: -81.7%
47 | COc1ccc2c(/C=C/c3cc[n+](C)cc3)c[nH]c2c1 | active: -98.7%
48 | COc1ccc(CCC(C)NCCc2ccccc2)cc1 (stereo not drawn) | inconclusive: -45.3%
49 | COc1cc(NC(=O)CSc2nc(-c3ccc(C(C)C)cc3)no2)cc(OC)c1 | inconclusive: -49.4%
50 | CC(=O)NC(c1cccc([N+](=O)[O-])c1)c1ccc2cccnc2c1O (stereo not drawn) | active: -102%
51 | COCCCn1c(=O)c2sccc2n2c(CCCC(=O)NC3CCC(C)CC3)nnc12 (stereo not drawn) | inconclusive: -40.6%
52 | CCCC(CCC)C(=O)OC1C[C@H]2CC[C@@H](C1)[N+]2(C)C (stereo partly drawn) | inactive: 14.6%
53 | NC(=O)C1=C[C@@H](c2ccc(Br)cc2)C[C@@H](OCCCCO)O1 | inconclusive: -58.7%

From PubChem BioAssay AID1259415 (National Center for Advancing Translational Sciences (NCATS), 2018)
